The results in this text go back to the supplement of paper PMC12578635.

± gives the standard deviation of the averaged measurements. The list shows a part of the results. Single values are uncertain, as repeats are few or missing.

The subject of the assay is RAW 264.7 macrophages infected with S. aureus JE2-lux. The assay is described as follows: host macrophage viability (CellTiter-Fluor) relative to DMSO vehicle; higher = more viable host cells. As to conditions: 10 µM; treatment time 4 h; gentamicin 50 µg/ml.
In the case of `COc1cc(C(=O)Nc2cccc3ccccc23)c(-n2cnnn2)cc1OC`, the host macrophage viability stood at 104%.
With `COc1ccc(CCNC(=O)Cn2c(-c3cccs3)cc3cccnc32)cc1OC` the figure was 99.3%.
Under `CCOC(=O)c1cc([N+](=O)[O-])sc1NC(=O)CC` stands 98.7 ± 2.9%; under `COc1ccc(S(=O)(=O)CCC(=O)Nc2nc3c(s2)COc2ccccc2-3)cc1`, 105%.
Take `Cc1cc2cc3c(cc2nc1SCC(=O)Nc1ccc2c(c1)OCO2)CCC3`: the host macrophage viability was found to be 110%.
In the case of `Cc1ccc2cc3cc(C(=O)OC(C(=O)NCC4CCCO4)c4ccccc4F)sc3nc2c1` (stereo unspecified), the host macrophage viability stood at 120%.
Under `NC(=O)c1ccsc1NC(=O)c1ccc2c(c1)OCCO2` stands 98%.
For the compound `COC(=O)c1ccccc1NC(=O)c1cnc(C)nc1C`, the host macrophage viability amounted to 95.5%.
Under `O=C(O)c1cccnc1Nc1cccc([N+](=O)[O-])c1` stands 99.4%; under `Cc1csc(-c2csc(S(=O)(=O)N3CC=C(c4ccccc4)CC3)c2)n1`, 101%; under `Cc1ccc(Cc2nn3c(SCC(=O)c4ccc(C)cc4)nnc3[nH]c2=O)cc1`, 114%.
Under `O=C1Nc2ccccc2/C1=C1/SC(=S)N(Nc2ccccc2)C1=O` stands 112%.
For `CC(=O)Nc1ccc(S(=O)(=O)Nc2cncc(C(=O)NC3CCCC3)c2)cc1`, the host macrophage viability is 104%.
Under `Cc1cccc(NC(=O)C2CCN(C(=O)NCc3ccccc3)CC2)c1C` stands 110%; under `CCOC(=O)c1c(-c2ccccc2)csc1NC1SC(=O)N(c2ccccc2)C1=O` (stereo unspecified), 119%.
As for `Cc1ccccc1C(=O)NCCNc1nc2c(c(=O)n(C)c(=O)n2C)n1Cc1ccccc1`, the host macrophage viability was determined as 99.5%.
For `CCOC(=O)c1c(C)oc2c1/C(=C/NCCO)C(=O)c1ccccc1-2`, the host macrophage viability stood at 136%.
With `CCc1ccc(N2C(=O)NC3CC2(C)Oc2ccccc23)cc1` (stereo unspecified) the figure was 113%; with `Cc1ccc(-c2nc3scc(CCNS(=O)(=O)c4ccc5c(c4)OCCO5)n3n2)cc1`, 116%; with `Cc1ccc2nc(-c3ccc(F)cc3)nc(SCC(=O)NCC3CCCO3)c2c1` (stereo unspecified), 113%.
As to `Cn1cc(NC(=O)c2ccc(C(F)(F)F)nc2N2CCN(CCO)CC2)cn1`, the host macrophage viability came out at 106%.
Under `Cc1nn2c(C(F)(F)F)cc(-c3ccccn3)nc2c1-c1ccccc1` stands 117%; under `CCOc1ccccc1NC(=O)c1cnc2sccn2c1=O`, 105 ± 6%; under `COc1ccc(CCN2CCCn3c2nc2c3c(=O)[nH]c(=O)n2C)cc1OC`, 107%.
For `O=C(O)c1ccc(CN2C(=O)CSC2=O)cc1`, the host macrophage viability is 111%.
Under `O=c1/c(=C/c2cccc([N+](=O)[O-])c2)sc2nc(-c3ccncc3)nn12` stands 117%.
On to `COc1ccc2nc(CN3CCC(NC(C)=O)(c4ccccc4F)CC3)ccc2c1`, for which the host macrophage viability was determined as 121%.
Under `COc1ccc(C)cc1NC(=O)CCN1C(=O)c2ccccc2S1(=O)=O` stands 112%; under `O=C(CSc1c(-c2ccccc2)[nH]c2ccccc12)NCc1ccco1`, 117%.
With `Cn1c(=O)c(Nc2ccc(O)cc2)c2c3c(cccc31)C(=O)c1ccccc1-2` the figure was 83.1%; with `CN(C)CCn1c2c(c(SCC(=O)Nc3ccc([N+](=O)[O-])cc3)nc1=O)CCC2`, 117%.
With `CCOCCCNC(=O)c1sc2nc(C)nc(N3CCCC3)c2c1C`, the host macrophage viability stood at 123%.
As for `CCn1c(C)cc2cc(NC(=O)c3c(-c4ccncc4)noc3C)ccc21`, the host macrophage viability was 108%.
Under `COc1ccc(CCC(=O)Nc2ccc3c(c2)C(=O)Nc2ccccc2O3)cc1` stands 120%; under `O=C(CN1C(=O)c2ccccc2C1=O)OCC(=O)c1ccc(-c2ccccc2)cc1`, 117%; under `CC(C)NC(=O)CN1CCN(c2ncc(NC(=O)c3ccc(F)cc3)cc2C(=O)O)CC1`, 113%.
Under `COc1ccc(NC(=O)CSc2nc3ccccc3c(=O)[nH]2)c(OC)c1` stands 94%; under `CCOC(=O)c1sc(NC(=O)CSc2nc(=O)n3ccc(C)cc3n2)c(C(=O)OCC)c1C`, 114%; under `C=CCOc1ccccc1NC(=O)c1cnc(N2CCOCC2)nc1`, 120%.
Under `CC(Cc1ccco1)NC(=O)Cn1cccc1-c1nc(-c2ccccc2)cs1` (stereo unspecified) stands 82.7%; under `O=C1Nc2ccc(Br)cc2/C1=N/NC(=O)c1ccccc1NC(=O)c1ccccc1`, 107%.
With `Cc1nn2c(-n3cccc3)c(-c3ccc(F)cc3)nc2s1`, the host macrophage viability was found to be 123%.
Take `O=C(Nc1cc2c3c(c1)CCC(=O)N3CCC2)c1cccc(C(F)(F)F)c1`: the host macrophage viability was determined as 110%.
Consider `CCC1Sc2ccc(S(=O)(=O)CCC(=O)NC(C)(C)C)cc2NC1=O` (stereo unspecified), for which the host macrophage viability came to 120%.
Turning to `O=C(NCc1ccc2[nH]c3c(c2c1)CCCC3)Nc1ccc(Cl)cc1`, the host macrophage viability came out at 120.5 ± 1.2%.
`NC(=O)c1c(NC(=O)/C=C/c2ccc(Cl)cc2Cl)sc2c1CCCC2`: the host macrophage viability was determined as 126%.
Under `Cc1nc(N2CCCC2)c2c(C)c(C(=O)N3CCOCC3)sc2n1` stands 96.2%.
With `Clc1cccc2nc3n(c12)CCN(C1CCCCC1)C3` the figure was 110%; with `CN(Cc1cc(O)nc2ccccc12)S(=O)(=O)c1ccc2c(c1)CCC(=O)N2`, 115%; with `COCCNC(=O)Cn1nc2c3c(C)c(C)sc3ncn2c1=O`, 138%.
Consider `Cc1nc2nc(NC(=O)Cn3nnc4ccccc43)ccc2c(C)c1C`, for which the host macrophage viability was 112%.
As to `Cc1ccc(/N=C2/NC(=O)/C(=C/c3ccccc3)S2)cc1`, the host macrophage viability stood at 118%.
Under `C=CCOC(=O)C1=C(C)Nc2c(c(=O)n(C)c(=O)n2C)C1c1cccnc1` (stereo unspecified) stands 115%; under `O=C(O)CCC(=O)NCCn1c(-c2ccccc2)cs/c1=N/c1ccccc1`, 118 ± 13%; under `Cc1cc(C)nc(NS(=O)(=O)c2ccc(NC(=O)c3ccc(Cl)cc3)cc2)n1`, 141%.
`Cc1ncc(C(=O)NC(c2ccccc2)c2ccnn2C)c(C)n1` (stereo unspecified): the host macrophage viability came to 112%.
With `O=C(CSc1c[nH]c2ccccc12)NCc1ccccc1` the figure was 112%; with `Cc1ccc(NC(=O)CSc2c[nH]c3ccccc23)c(C)c1`, 134%.
Under `COc1cc(Cl)c(C)cc1NC(=O)CSc1nc2c(-c3ccccc3)csc2c(=O)n1C` stands 136%; under `Cc1nc2ccccc2cc1C(=O)NCc1ccccn1`, 91.7%; under `O=C(NCc1cccnc1)C(=O)c1cn(CC(=O)N2CCCCC2)c2ccccc12`, 113%.
Under `CCS(=O)(=O)c1ccc(C(=O)Nc2nc3ccc(Br)cc3s2)cc1` stands 122%.
For the compound `CNc1nc2c(c(=O)n(C)c(=O)n2C)n1CCSc1nc2ccccc2s1`, the host macrophage viability came to 117%.
Under `COc1c(Sc2ccc([N+](=O)[O-])cc2)c(C)nn1-c1ccccc1` stands 105 ± 8.9%; under `COc1ccc(-c2ocnc2C(=O)NCCc2cccc(F)c2)cc1OC`, 111%.
Under `O=C(Cn1c(CN2CCCCC2)nc2ccccc21)N1CCOCC1` stands 106%; under `CC(=O)Nc1ccc(Nc2c3c(c(C#N)c4nc5ccccc5n24)CCCC3)cc1`, 129%; under `CCOC(=O)c1c(SCC(=O)Nc2cc(C(F)(F)F)cc(C(F)(F)F)c2)nc(=O)[nH]c1C`, 109%.
Turning to `COc1cccc2cc(C(N)=O)/c(=N\c3ccc(O)cc3)oc12`, the host macrophage viability came out at 111%.
Turning to `Cc1c(Cl)cccc1N1CCCn2c1nc1c2c(=O)n(CC(=O)O)c(=O)n1C`, the host macrophage viability stood at 127%.
For the compound `COc1ccc([N+](=O)[O-])cc1NC(=O)CSc1ccc(C)cc1`, the host macrophage viability turned out to be 103%.
With `COc1ccc2[nH]c3nc(SCC(=O)Nc4ccccc4Cl)nnc3c2c1` the figure was 118%.
With `CCn1ncc(C2=NOC(C(=O)NCc3cccnc3)C2)c1C` (stereo unspecified) the figure was 102%; with `CCOc1ccc2[nH]c(C(=O)NC(c3ccccc3)c3cccnc3)c(C)c2c1` (stereo unspecified), 113%.
With `Cc1cccn2c(=O)nc(SCC(=O)Nc3ccccc3F)nc12`, the host macrophage viability came to 119%.
Turning to `Cc1nn2c(=O)/c(=C\c3cccnc3)sc2nc1=O`, the host macrophage viability is 117%.
With `O=C(CCN1C(=O)c2ccccc2S1(=O)=O)Nc1ccc(F)c([N+](=O)[O-])c1` the figure was 114%; with `Cc1ccc(C(=O)CSc2nnc3cc(C)c4ccccc4n23)s1`, 111%; with `COc1ccc(OC)c(NC(=O)Cn2c(=O)n(C(C)C)c3ncccc32)c1`, 113%.
Under `O=C(CCC1CCCC1)N1CCN(c2ncnc3c2nnn3-c2ccc(F)cc2)CC1` stands 112%; under `COc1cc(/C=N/NC(=O)CNC(=O)c2cccc3ccccc23)cc(OC)c1OC`, 107%.
Under `COc1cc(OC)cc(C(=O)N2CCN(c3nc4ccccc4cc3-c3noc(C)n3)CC2)c1` stands 90.3%; under `Cc1nc(-n2nc(C)c(CC(=O)N3CCCCC3)c2O)sc1C`, 113%.
As for `c1ccc2c(c1)c(N1CCN(Cc3ccc4c(c3)OCO4)CC1)nn1nnnc21`, the host macrophage viability was 102%.
In the case of `Cn1ncc2c1CCc1sc(NC(=O)CC3CCS(=O)(=O)C3)nc1-2` (stereo unspecified), the host macrophage viability worked out at 113%.
Under `Cc1ccc(NC(=S)NC2CC3CCC(C2)N3Cc2ccccc2)cc1C` (stereo unspecified) stands 102%; under `c1csc(CCNc2nn3cnnc3c3ccccc23)c1`, 73.8%; under `NC(=O)Cn1cnc2c(sc3ncccc32)c1=O`, 110%.
Under `O=C(CC1Sc2ccccc2NC1=O)Nc1ccc(Cl)cc1[N+](=O)[O-]` (stereo unspecified) stands 112%.
With `CCC(=O)Oc1cccc(N2C(=O)c3ccc(C(=O)O)cc3C2=O)c1` the figure was 110 ± 4.1%; with `c1ccc(CNc2nc(-c3ccccc3)no2)cc1`, 125%.
With `CC(C)c1ccc(NC(=O)CSc2nncc(=O)[nH]2)cc1`, the host macrophage viability turned out to be 106%.
With `O=C(CSc1nc2sc3c(c2c(=O)[nH]1)CCCC3)Nc1nccs1` the figure was 106%.
As for `CCC(Cn1nc2c(C)cc3ccccc3n2c1=O)NC(=O)c1ccco1` (stereo unspecified), the host macrophage viability is 119%.
With `Cc1nnc(NC(=O)CSc2c(CC(C)C)cnc3c2c(=O)n(C)c(=O)n3C)s1` the figure was 127%; with `O=C(NCc1nnnn1-c1ccc(F)cc1)C1CC(=O)N(c2ccc(F)cc2)C1` (stereo unspecified), 112%.
For `O=C(CCC(=O)N1CC(c2ccccc2)Oc2cccnc21)NCc1ccc(Cl)cc1` (stereo unspecified), the host macrophage viability turned out to be 90.7%.
With `O=C(NCC1COC2(CCCCC2)O1)c1ccccc1F` (stereo unspecified) the figure was 95.4%.
With `COc1cc(/C=C/C(=O)C2=C(O)c3ccccc3C2=O)ccc1O`, the host macrophage viability is 109%.
Under `COC(=O)c1ccc(CSc2nc(=O)n3ccc(C)cc3n2)o1` stands 101%; under `O=C(O)C1=CC(c2c[nH]nc2-c2ccc(F)cc2)n2ncnc2N1` (stereo unspecified), 123%; under `CCOc1cc(NC(=O)c2cccc(Cl)c2)c(OCC)cc1NC(=O)c1ccc(Cl)cc1`, 127%.
With `CC(=O)c1ccc(-c2ccc(/C=C(\C#N)S(=O)(=O)c3ccccc3)o2)cc1` the figure was 126%.
Under `Cc1cccc(S(=O)(=O)N(C)Cc2nc3cc(C(=O)N4CCCC4)ccc3n2C)c1` stands 111%.
`CCOC(=O)c1oc2ccccc2c1NC(=O)c1cc2ccccc2oc1=O`: the host macrophage viability worked out at 120 ± 16%.
With `COC(=O)c1ccc(NC(=O)C(C)N2C(=O)c3ccccc3S2(=O)=O)cc1` (stereo unspecified) the figure was 110%.
